Laboratory results reported in publication doi:10.1101/2025.10.27.684818.
Results are given in words; binding and its absence hold for the method and conditions named. In cells and extracts the contact can be indirect. Some entries that bind do so weakly or less than the wild type. Sequences can lack the tags named with a protein.

T1: LEA5-Cnluc (BH-lea5-Cnluc) (Arabidopsis thaliana) (UniProt P42759)
T1 sequence: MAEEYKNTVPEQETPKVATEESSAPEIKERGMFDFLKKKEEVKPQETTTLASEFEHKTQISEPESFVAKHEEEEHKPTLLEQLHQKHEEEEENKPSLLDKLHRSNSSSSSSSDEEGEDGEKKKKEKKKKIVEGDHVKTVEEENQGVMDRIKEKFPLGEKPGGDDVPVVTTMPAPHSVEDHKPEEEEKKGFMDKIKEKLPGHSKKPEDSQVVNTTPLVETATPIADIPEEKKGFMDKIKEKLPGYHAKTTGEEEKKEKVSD

T2: LEA5 rBiFC bait (LEA5 carrying the C-terminal of YFP, pBiFCt-2in1-CC) (Arabidopsis thaliana) (UniProt P42759)
T2 sequence: T1 sequence

B1: LEA10 split-luciferase prey (protein, UniProt P42763 1-185)
chain: MAEEIKNVPEQEVPKVATEESSAEVTDRGLFDFLGKKKDETKPEETPIASEFEQKVHISEPEPEVKHESLLEKLHRSDSSSSSSSEEEGSDGEKRKKKKEKKKPTTEVEVKEEEKKGFMEKLKEKLPGHKKPEDGSAVAAAPVVVPPPVEEAHPVEKKGILEKIKEKLPGYHPKTTVEEEKKDKE
B2: LEA4-Nnluc (ZKlea4-Nnluc) (protein, UniProt P31168 1-265)
chain: MAEEYKNNVPEHETPTVATEESPATTTEVTDRGLFDFLGKKEEEVKPQETTTLESEFDHKAQISEPELAAEHEEVKENKITLLEELQEKTEEDEENKPSVIEKLHRSNSSSSSSSDEEGEEKKEKKKKIVEGEEDKKGLVEKIKEKLPGHHDKTAEDDVPVSTTIPVPVSESVVEHDHPEEEKKGLVEKIKEKLPGHHDEKAEDSPAVTSTPLVVTEHPVEPTTELPVEHPEEKKGILEKIKEKLPGYHAKTTEEEVKKEKESDD
B3: OSCA3-Nnluc (ZKosca3-Nnluc) (protein, UniProt Q9C8G5 1-724)
chain: MEFGSFLVSLGTSFVIFVILMLLFTWLSRKSGNAPIYYPNRILKGLEPWEGTSLTRNPFAWMREALTSSEQDVVNLSGVDTAVHFVFLSTVLGIFACSSLLLLPTLLPLAATDNNIKNTKNATDTTSKGTFSQLDNLSMANITKKSSRLWAFLGAVYWISLVTYFFLWKAYKHVSSLRAQALMSADVKPEQFAILVRDMPAPPDGQTQKEFIDSYFREIYPETFYRSLVATENSKVNKIWEKLEGYKKKLARAEAILAATNNRPTNKTGFCGLVGKQVDSIEYYTELINESVAKLETEQKAVLAEKQQTAAVVFFTTRVAAASAAQSLHCQMVDKWTVTEAPEPRQLLWQNLNIKLFSRIIRQYFIYFFVAVTILFYMIPIAFVSAITTLKNLQRIIPFIKPVVEITAIRTVLESFLPQIALIVFLAMLPKLLLFLSKAEGIPSQSHAIRAASGKYFYFSVFNVFIGVTLAGTLFNTVKDIAKNPKLDMIINLLATSLPKSATFFLTYVALKFFIGYGLELSRIIPLIIFHLKKKYLCKTEAEVKEAWYPGDLSYATRVPGDMLILTITFCYSVIAPLILIFGITYFGLGWLVLRNQALKVYVPSYESYGRMWPHIHQRILAALFLFQVVMFGYLGAKTFFYTALVIPLIITSLIFGYVCRQKFYGGFEHTALEVACRELKQSPDLEEIFRAYIPHSLSSHKPEEHEFKGAMSRYQDFNAIAGV
B4: PLDα1-Nnluc (ZKpldα1-Nnluc) (enzyme, UniProt Q38882 1-810)
chain: MAQHLLHGTLHATIYEVDALHGGGVRQGFLGKILANVEETIGVGKGETQLYATIDLQKARVGRTRKIKNEPKNPKWYESFHIYCAHLASDIIFTVKDDNPIGATLIGRAYIPVDQVINGEEVDQWVEILDNDRNPIQGGSKIHVKLQYFHVEEDRNWNMGIKSAKFPGVPYTFFSQRQGCKVSLYQDAHIPDNFVPRIPLAGGKNYEPQRCWEDIFDAISNAKHLIYITGWSVYAEIALVRDSRRPKPGGDVTIGELLKKKASEGVRVLLLVWDDRTSVDVLKKDGLMATHDEETENFFRGSDVHCILCPRNPDDGGSIVQSLQISTMFTHHQKIVVVDSEMPSRGGSEMRRIVSFVGGIDLCDGRYDTPFHSLFRTLDTVHHDDFHQPNFTGAAITKGGPREPWHDIHSRLEGPIAWDVMYNFEQRWSKQGGKDILVKLRDLSDIIITPSPVMFQEDHDVWNVQLFRSIDGGAAAGFPESPEAAAEAGLVSGKDNIIDRSIQDAYIHAIRRAKDFIYVENQYFLGSSFAWAADGITPEDINALHLIPKELSLKIVSKIEKGEKFRVYVVVPMWPEGLPESGSVQAILDWQRRTMEMMYKDVIQALRAQGLEEDPRNYLTFFCLGNREVKKDGEYEPAEKPDPDTDYMRAQEARRFMIYVHTKMMIVDDEYIIIGSANINQRSMDGARDSEIAMGGYQPHHLSHRQPARGQIHGFRMSLWYEHLGMLDETFLDPSSLECIEKVNRISDKYWDFYSSESLEHDLPGHLLRYPIGVASEGDITELPGFEFFPDTKARILGTKSDYLPPILTT
B5: LEA8-Nnluc (ZKlea8-Nnluc) (protein, UniProt Q9SLJ2 1-98)
chain: MAGLINKIGDALHIGGGNKEGEHKKEEEHKKHVDEHKSGEHKEGIVDKIKDKIHGGEGKSHDGEGKSHDGEKKKKKDKKEKKHHDDGHHSSSSDSDSD
B6: LEA5 rBiFC bait (LEA5 carrying the C-terminal of YFP, pBiFCt-2in1-CC) (protein, UniProt P42759 1-260)
chain: T1 sequence
B7: LEA10 rBiFC prey (carrying the N-terminal of YFP) (protein, UniProt P42763 1-185)
chain: B1 chain
B8: LEA4 rBiFC prey (carrying the N-terminal of YFP) (protein, UniProt P31168 1-265)
chain: B2 chain
B9: OSCA3 rBiFC prey (carrying the N-terminal of YFP) (protein, UniProt Q9C8G5 1-724)
chain: B3 chain
B10: PLDα1 rBiFC prey (carrying the N-terminal of YFP) (enzyme, UniProt Q38882 1-810)
chain: B4 chain

Target: T1, LEA5-Cnluc (BH-lea5-Cnluc) (Arabidopsis thaliana)
Assay: split reporter

| Binder | binding |
| --- | --- |
| B1 | binds |
| B2 | binds |
| B3 | binds |
| B4 | binds |
| B5 | no binding |

Target: T2, LEA5 rBiFC bait (LEA5 carrying the C-terminal of YFP, pBiFCt-2in1-CC) (Arabidopsis thaliana)
Assay: split reporter

| Binder | binding |
| --- | --- |
| B6 | binds |
| B7 | binds |
| B8 | binds |
| B9 | binds |
| B10 | binds |
